Test results published in patent US10597369B2, “Monosulfonic phenyltetrazole compounds with applications” (HANGZHOU JENNIFER BIOTECH CO., LTD., priority 2015, dated 2020).

Assay: Assay interference of tetrazolium-formazan-NAD(P)H system
Settings: absorbance at 450 nm (reference 620 nm); for assay interference by antioxidant BME: BME dose response in the absence of NADH; for assay interference by Tween 20: up to 0.2% Tween 20; for assay interference by Tween 20 / assay interference by SDS: absence or presence of 100 μM NADH; for assay interference by SDS: up to 1% SDS

| Structure (SMILES) | assay interference by antioxidant BME | assay interference by Tween 20 | assay interference by SDS |
| --- | --- | --- | --- |
| COc1cc([N+](=O)[O-])ccc1-[n+]1nc(-c2ccccc2S(=O)(=O)O)nn1-c1ccc([N+](=O)[O-])cc1 [EZMTT, 2-(4-nitrophenyl)-3-(2-methoxy-4-nitrophenyl)-5 (2-sulfonic phenyl)-2H-tetrazolium monosodium salt] | essentially no signal changes | no interference | no interference |
| COc1cc([N+](=O)[O-])ccc1-[n+]1nc(-c2ccc(S(=O)(=O)[O-])cc2S(=O)(=O)[O-])nn1-c1ccc([N+](=O)[O-])cc1.[Na+] [WST-8, 2-(3-(2-methoxy-4-nitrophenyl)-2-(4-nitrophenyl)-2H-tetrazolium)benzene disulfonate sodium salt, reference compound] | strong dose-dependent false positive signals | no interference | no interference |

Counter-ions that a name gives are not always drawn.
